Consider 6 molecules from patent US4110626A, “Method for improving the quality of the fragrance of perfumes using aliphatic dibasic acid diesters” (Shiseido Co., Ltd., priority 1976, dated 1978).

The nature of the data set: Diluting effect: fragrance change evaluated by a panel of five expert perfumers. Details: key: O: Almost no change occurred; Δ: Somewhat changed?; ×: Changed.

As for `CC(C)CCOC(=O)CCCCC(=O)OCCC(C)C` (single isomer, unassigned) [DIAA, diisoamyl adipate], the “FC (Fragrance change)” value by setting is: (perfume: Coumarin) “O”; (perfume: Heliotropin) “O”; (perfume: Ionone) “O”; (perfume: Laurinal) “O”; (perfume: Limonene) “O”; (perfume: Linalool) “O”. Also, the “FC (Fragrance change)” value is on record as “O” (perfume: Linalyl Acetate), “O” (perfume: Musk Ketone) and “O” (perfume: Resinoid Olibanum).
Consider `OCc1ccccc1` [Benzyl Alcohol], for which the “FC (Fragrance change)” value is “Δ” (perfume: Coumarin); “×” (perfume: Heliotropin); “Δ” (perfume: Ionone); “×” (perfume: Laurinal); “Δ” (perfume: Limonene); “Δ” (perfume: Linalool). Also, the “FC (Fragrance change)” value is “Δ” (perfume: Linalyl Acetate), “×” (perfume: Musk Ketone) and “Δ” (perfume: Resinoid Olibanum).
On to `O=C(OCc1ccccc1)c1ccccc1` [Benzyl Benzoate, benzyl benzoate], for which the “FC (Fragrance change)” value runs as follows: (perfume: Coumarin) “O”; (perfume: Heliotropin) “O”; (perfume: Ionone) “O”; (perfume: Laurinal) “Δ”; (perfume: Limonene) “O”; (perfume: Linalool) “O”. Also, the “FC (Fragrance change)” value is listed as “O” (perfume: Linalyl Acetate), “O” (perfume: Musk Ketone), “O” (perfume: Resinoid Olibanum) and “O” (perfume: Ylang Ylang).
Consider `CC(C)COC(=O)CCCCC(=O)OCC(C)C` [DIBA, diisobutyl adipate], for which the “FC (Fragrance change)” value was “O” (perfume: Coumarin); “O” (perfume: Heliotropin); “O” (perfume: Ionone); “O” (perfume: Laurinal); “O” (perfume: Limonene); “O” (perfume: Linalool). Moreover, the “FC (Fragrance change)” value is, setting by setting: (perfume: Linalyl Acetate) “O”; (perfume: Musk Ketone) “O”; (perfume: Resinoid Olibanum) “O”.
For `CCOC(=O)c1ccccc1C(=O)OCC` [Diethyl Phthalate, diethyl phthalate], the “FC (Fragrance change)” value is on record as “O” (perfume: Coumarin); “O” (perfume: Heliotropin); “O” (perfume: Ionone); “O” (perfume: Laurinal); “O” (perfume: Limonene); “O” (perfume: Linalool). Further, the “FC (Fragrance change)” value (perfume: Linalyl Acetate) is reported as “O”, the “FC (Fragrance change)” value (perfume: Musk Ketone) is “O”, the “FC (Fragrance change)” value (perfume: Resinoid Olibanum) is given as “O” and the “FC (Fragrance change)” value (perfume: Ylang Ylang) is “O”.
As for dipropylene glycol, the “FC (Fragrance change)” value is, setting by setting: (perfume: Coumarin) “O”; (perfume: Heliotropin) “O”; (perfume: Ionone) “O”; (perfume: Laurinal) “O”; (perfume: Limonene) “O”; (perfume: Linalool) “O”. The “FC (Fragrance change)” value (perfume: Linalyl Acetate) is reported as “O”, the “FC (Fragrance change)” value (perfume: Musk Ketone) is recorded as “O” and the “FC (Fragrance change)” value (perfume: Resinoid Olibanum) was “O”.
